Reference: patent publication US5521167A, “Cyclopentanperhydrophenanthren-17β-(hydroxy or alkoxy)-17α-(Aryl or heterocyclyl)-3β-derivatives active on the cardiovascular system, and pharmaceutical compositions containing same” (Sigma-Tau Industrie Farmceutiche Riunite S.p.A., priority 1992, dated 1996)
At least one read-out could not be matched to a standard name with certainty.

Target: T1, Na^+,K^+ -ATPase (Canis lupus familiaris, UniProt P50997)
T1 construct: Na^+,K^+ -ATPase receptor purified according to Jorghensen; from tissue
Assay: inhibition of the activity of the purified Na^+,K^+ -ATPase measured as % of hydrolysis of ^32 P-ATP
Assay type: biochemical
Text: To test the affinity for the receptor site of the Na^+,K^+ -ATPase and the agonist or antagonist activity on the enzyme, the following tests were used: a) displacement of the specific ^3 H-ouabain binding from the Na^+,K^+ -ATPase receptor purified according to Jorghensen (Jorghensen P., BBA, 1974, 356, 36) and Erdmann ( Erdmann E. et al., Arzneim. Forsh., 1984, 34, 1314); b) inhibition of the activity of the purified Na^+,K^+ -ATPase measured as % of hydrolysis of ^32 P-ATP in presence and in absence of the tested compound (Doucet A. et al., Am. J. Physiol., 1986, 251, F851). The ability of these compounds to lower blood pressure in adult hypertensive MHS rats was tested according to the following scheme: systolic blood pressure (SBP) and heart rate (HR) were measured by an indirect tail-cuff method in three-month old hypertensive MHS rats before starting with the treatment (basal values). The rats were then subdivided in two groups of 7 animals each, one receiving the compound and the other, the control group, receiving only the vehicle. The compound was orally daily given, suspended in Methocel 0.5% (w/v), for ten days. SBP and HR were measured daily 6 and 24 hours after the treatment.

C[C@]12CC[C@H](OCCOCCN3CCCC3)C[C@@H]1CC[C@@H]1[C@@H]2CC[C@@]2(C)[C@H]1CC[C@@]2(OCCN1CCCC1)c1ccoc1 [Comp. I-an, 3β-(2-(2-(1-Pyrrolidinyl)ethoxy)ethoxy)-17β-(2-(1-pyrrolidinyl)ethoxy)-17α-(3-furyl)-androstane]
Inhibitory Activity log IC50: 5.5
